{
  "sequences": {"note": "Protein sequences, listed by entry. Tags and fused reporters are not part of them. Lines headed by an entry give the natural chain unless they say otherwise; changes in a name come on top. Residues count along the entry.", "UniProt O22476": "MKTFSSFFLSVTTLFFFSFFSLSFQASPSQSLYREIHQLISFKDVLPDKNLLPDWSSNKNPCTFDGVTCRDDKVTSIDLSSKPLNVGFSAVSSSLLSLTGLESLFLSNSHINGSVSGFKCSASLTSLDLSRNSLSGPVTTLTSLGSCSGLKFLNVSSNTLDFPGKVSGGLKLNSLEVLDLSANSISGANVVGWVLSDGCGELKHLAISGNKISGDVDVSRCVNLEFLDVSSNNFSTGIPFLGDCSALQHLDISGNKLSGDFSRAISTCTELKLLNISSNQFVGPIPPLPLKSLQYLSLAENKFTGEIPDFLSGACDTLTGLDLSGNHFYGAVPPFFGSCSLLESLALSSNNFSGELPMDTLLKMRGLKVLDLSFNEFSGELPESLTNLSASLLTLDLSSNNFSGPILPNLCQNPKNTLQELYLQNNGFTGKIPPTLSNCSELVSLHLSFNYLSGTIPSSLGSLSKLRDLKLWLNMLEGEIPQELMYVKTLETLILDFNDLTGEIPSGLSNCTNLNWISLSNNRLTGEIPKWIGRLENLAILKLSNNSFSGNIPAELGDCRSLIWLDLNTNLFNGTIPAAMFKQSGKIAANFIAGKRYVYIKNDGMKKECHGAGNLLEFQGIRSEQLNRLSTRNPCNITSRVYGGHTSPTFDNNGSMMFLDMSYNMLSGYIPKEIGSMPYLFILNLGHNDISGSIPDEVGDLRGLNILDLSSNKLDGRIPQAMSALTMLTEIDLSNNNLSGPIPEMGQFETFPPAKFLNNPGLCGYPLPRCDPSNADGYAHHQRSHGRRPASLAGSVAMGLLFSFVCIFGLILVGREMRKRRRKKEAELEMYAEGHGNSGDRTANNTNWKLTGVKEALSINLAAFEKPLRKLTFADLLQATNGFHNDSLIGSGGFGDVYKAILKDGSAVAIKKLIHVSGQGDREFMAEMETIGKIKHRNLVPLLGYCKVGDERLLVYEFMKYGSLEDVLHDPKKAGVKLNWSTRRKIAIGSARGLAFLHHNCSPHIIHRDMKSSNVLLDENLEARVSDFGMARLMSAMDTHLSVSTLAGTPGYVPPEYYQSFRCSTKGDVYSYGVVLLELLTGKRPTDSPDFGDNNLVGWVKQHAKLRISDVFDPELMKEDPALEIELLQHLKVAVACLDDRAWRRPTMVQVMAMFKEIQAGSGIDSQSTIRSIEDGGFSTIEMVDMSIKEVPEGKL", "BRI1-FLAG": "residues 24-1196 of O22476"},
  "source": "paper PMC9343009",
  "molecules": {"B1": {"name": "SAUR15-YC (protein, UniProt Q41220 1-89)", "chain": "MAFLRSFLGAKQIIRRESSSTPRGFMAVYVGENDQKKKRYVVPVSYLNQPLFQQLLSKSEEEFGYDHPMGGLTIPCHESLFFTVTSQIQ"}, "B2": {"name": "SAUR15-GFP (protein, UniProt Q41220 1-89)", "chain": "MAFLRSFLGAKQIIRRESSSTPRGFMAVYVGENDQKKKRYVVPVSYLNQPLFQQLLSKSEEEFGYDHPMGGLTIPCHESLFFTVTSQIQ"}, "B3": {"name": "BAK1-GFP (receptor, UniProt Q94F62 26-615)", "chain": "NAEGDALSALKNSLADPNKVLQSWDATLVTPCTWFHVTCNSDNSVTRVDLGNANLSGQLVMQLGQLPNLQYLELYSNNITGTIPEQLGNLTELVSLDLYLNNLSGPIPSTLGRLKKLRFLRLNNNSLSGEIPRSLTAVLTLQVLDLSNNPLTGDIPVNGSFSLFTPISFANTKLTPLPASPPPPISPTPPSPAGSNRITGAIAGGVAAGAALLFAVPAIALAWWRRKKPQDHFFDVPAEEDPEVHLGQLKRFSLRELQVASDNFSNKNILGRGGFGKVYKGRLADGTLVAVKRLKEERTQGGELQFQTEVEMISMAVHRNLLRLRGFCMTPTERLLVYPYMANGSVASCLRERPESQPPLDWPKRQRIALGSARGLAYLHDHCDPKIIHRDVKAANILLDEEFEAVVGDFGLAKLMDYKDTHVTTAVRGTIGHIAPEYLSTGKSSEKTDVFGYGVMLLELITGQRAFDLARLANDDDVMLLDWVKGLLKEKKLEALVDVDLQGNYKDEEVEQLIQVALLCTQSSPMERPKMSEVVRMLEGDGLAERWEEWQKEEMFRQDFNYPTHHPAVSGWIIGDSTSQIENEYPSGPR"}},
  "key": {"[1]": {"target": "AHA1-Cub (Arabidopsis thaliana) (UniProt P20649)", "assay": "two-hybrid; mating-based split ubiquitin system (mbSUS) in yeast; SAUR15, AHA1, AHA2 fused to Cub, BRI1 constructs fused to Nub; diploid cells on SD media with 0, 150 or 400 mM Met (so in the source)"}, "[2]": {"target": "T1, AHA2-Cub (Arabidopsis thaliana) (UniProt P19456)", "T1 sequence": "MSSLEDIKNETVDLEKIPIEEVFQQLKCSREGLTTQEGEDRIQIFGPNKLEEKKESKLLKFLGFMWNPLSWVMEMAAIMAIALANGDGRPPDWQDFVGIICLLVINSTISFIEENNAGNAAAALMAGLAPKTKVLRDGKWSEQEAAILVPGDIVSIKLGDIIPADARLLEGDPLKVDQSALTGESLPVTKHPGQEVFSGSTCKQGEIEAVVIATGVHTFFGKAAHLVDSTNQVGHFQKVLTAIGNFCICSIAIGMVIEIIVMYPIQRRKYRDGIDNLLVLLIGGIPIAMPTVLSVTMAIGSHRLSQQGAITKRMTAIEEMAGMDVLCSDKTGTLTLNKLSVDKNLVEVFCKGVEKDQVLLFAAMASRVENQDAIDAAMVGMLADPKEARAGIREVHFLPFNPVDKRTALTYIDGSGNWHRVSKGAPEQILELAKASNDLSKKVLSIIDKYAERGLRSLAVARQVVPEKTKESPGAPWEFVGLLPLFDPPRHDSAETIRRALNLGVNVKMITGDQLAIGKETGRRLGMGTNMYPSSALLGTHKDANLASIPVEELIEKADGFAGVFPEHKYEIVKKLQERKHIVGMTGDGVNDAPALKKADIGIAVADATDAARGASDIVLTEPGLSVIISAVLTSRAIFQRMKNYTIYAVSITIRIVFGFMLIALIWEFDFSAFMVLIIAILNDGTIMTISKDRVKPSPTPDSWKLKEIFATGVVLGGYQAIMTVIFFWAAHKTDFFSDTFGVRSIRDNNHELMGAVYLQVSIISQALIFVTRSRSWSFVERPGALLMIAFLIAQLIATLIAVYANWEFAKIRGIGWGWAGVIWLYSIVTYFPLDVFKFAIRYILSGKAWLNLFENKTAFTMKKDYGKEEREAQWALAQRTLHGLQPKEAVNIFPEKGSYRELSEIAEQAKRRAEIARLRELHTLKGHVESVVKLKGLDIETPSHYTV", "assay": "two-hybrid; mating-based split ubiquitin system (mbSUS) in yeast; SAUR15, AHA1, AHA2 fused to Cub, BRI1 constructs fused to Nub; diploid cells on SD media with 0, 150 or 400 mM Met (so in the source)"}, "[3]": {"target": "BRI1-YN (Arabidopsis thaliana) (UniProt O22476)", "assay": "split reporter; BiFC in N. benthamiana leaves; YC and YN fusions co-infiltrated with Agrobacterium GV3101; confocal microscopy 48 h after infiltration"}, "[4]": {"target": "BRI1-FLAG (Arabidopsis thaliana) (UniProt O22476)", "assay": "co-IP; BRI1-FLAG immunoprecipitated with α-FLAG M2 affinity gel from the solubilized membrane fraction of transgenic Arabidopsis seedlings; blots with α-GFP or α-AHA; seedlings treated with 1 μM BL for 2 h (for BAK1 and AHA also untreated, for AHA also 1 μM BRZ for 18 h; Col-0, saur15-1 and SAUR15-3HA backgrounds)"}},
  "note": "Results are given in words; binding and its absence hold for the method and conditions named. For some assays here: In cells and extracts the contact can be indirect. Some binding calls cover weakened binding; strength is not graded here. For some assays here: Where a sequence is shown, tags or fusion partners need not be part of it.",
  "data": [
    {"molecule": "BRI1-FL-Nub (from UniProt O22476 1-1196) (receptor)", "values": [
      {"measurement": "binding", "setting": "[1]", "value": "binds"},
      {"measurement": "binding", "setting": "[2]", "value": "binds"}
    ]},
    {"molecule": "B1", "values": [
      {"measurement": "binding", "setting": "[3]", "value": "binds"}
    ]},
    {"molecule": "B2", "values": [
      {"measurement": "binding", "setting": "[4]", "value": "binds"}
    ]},
    {"molecule": "B3", "values": [
      {"measurement": "binding", "setting": "[4]", "value": "binds"}
    ]}
  ]
}
